PubChem BioAssay AID1259424, University of Nebraska Medical Center | 2018

- Screen: 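Seek colon cancer survival genes behaving like KSR1, using a six-gene signature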 (primary screen)
- Cells: human HCT116 colon cancer cells
- Reagents: siRNA pool against human genes, 50 nM
- Detection: 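Six signature mRNAs by branched-DNA multiplex assay, scaled to two housekeeping genes and non-targeting median, log2; matched to mean KSR1 knockdown profile by Pearson correlation and euclidean distance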
- Reading the numbers: mean correlation with KSR1 profile and KSR1 correlation: higher = expression change more like KSR1 knockdown; mean distance from KSR1 profile: higher = expression change less like KSR1 knockdown
Shown is a random part of about 14,000 reagents. 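Higher correlation or smaller distance means closer resemblance to KSR1 loss; control wells, including KSR1 knockdowns, recur on many plates.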 Further read-outs or replicates are left out here. Not stated in the record: the time to read-out.

| gene | PubChem SID | mean correlation with KSR1 profile | mean distance from KSR1 profile | KSR1 correlation, replicate 1 |
| --- | --- | --- | --- | --- |
| AMD1 | SID363992859 | 0.695 | 2.18 | 0.699 |
| EPHA4 | SID363995420 | 0.258 | 2.34 | 0.423 |
| GSTZ1 | SID363992771 | 0.437 | 0.894 | 0.579 |
| GPR26 | SID364004771 | 0.103 | 2.07 | 0.0645 |
| HYI | SID364003546 | 0.237 | 1.88 | 0.243 |
| ARL4D | SID363992885 | 0.225 | 1.41 | 0.225 |
| SARNP | SID364004312 | -0.143 | 2.48 | -0.231 |
| MAPK3 | SID363993904 | 0.603 | 1.57 | 0.683 |
| FAM114A2 | SID364001185 | -0.124 | 2.11 | 0.191 |
| VAC14 | SID364000740 | -0.00327 | 8.3 | 0.0862 |
| VAC14 | SID364005026 | 0.447 | 2.65 | 0.464 |
| NRSN2 | SID364003187 | 0.00277 | 1.97 | 0.0235 |
| ACSL5 | SID363999969 | 0.0969 | 1.75 | -0.103 |
| PPIL3 | SID364003994 | -0.581 | 2.37 | -0.498 |
| CA8 | SID363995066 | -0.348 | 3.34 | -0.276 |
| RSPO3 | SID364004169 | 0.585 | 1.64 | 0.5 |
| ZNF197 | SID363997728 | -0.514 | 2.16 | -0.717 |
| LAMB4 | SID363997998 | 0.118 | 2.57 | 0.239 |
| SORBS2 | SID363994683 | 0.345 | 1.88 | 0.37 |
| ZBP1 | SID364003429 | 0.765 | 1.22 | 0.389 |
| KPNA5 | SID363993467 | -0.27 | 1.79 | -0.193 |
| MED10 | SID364003874 | 0.0316 | 2.92 | 0.06 |

6 successive entries from above, quoted:
| gene | PubChem SID | mean correlation with KSR1 profile | mean distance from KSR1 profile | KSR1 correlation, replicate 1 |
| --- | --- | --- | --- | --- |
| FAM114A2 | SID364001185 | -0.124 | 2.11 | 0.191 |
| VAC14 | SID364000740 | -0.00327 | 8.3 | 0.0862 |
| VAC14 | SID364005026 | 0.447 | 2.65 | 0.464 |
| NRSN2 | SID364003187 | 0.00277 | 1.97 | 0.0235 |
| ACSL5 | SID363999969 | 0.0969 | 1.75 | -0.103 |
| PPIL3 | SID364003994 | -0.581 | 2.37 | -0.498 |

The listing continues.
| gene | PubChem SID | mean correlation with KSR1 profile | mean distance from KSR1 profile | KSR1 correlation, replicate 1 |
| --- | --- | --- | --- | --- |
| APEX1 | SID363992866 | -0.0107 | 1.82 | -0.275 |
| FZR1 | SID363999991 | -0.407 | 2.86 | -0.555 |
| RASGRP1 | SID363996624 | 0.573 | 1.5 | 0.469 |
| MIEF1 | SID364001326 | 0.111 | 1.38 | 0.0656 |
| CBX4 | SID363994730 | 0.525 | 3.52 | -0.0567 |
| NRIP3 | SID364001748 | 0.0226 | 1 | 0.129 |
| PCDHGA4 | SID364001244 | 0.366 | 0.918 | 0.236 |
| BRF2 | SID364000966 | -0.15 | 2.11 | 0.258 |
| SHFL | SID364001024 | -0.655 | 1.52 | -0.154 |
| MGAT1 | SID363993584 | 0.045 | 2.82 | 0.0422 |
| C22orf23 | SID364004054 | 0.535 | 1.38 | 0.404 |
| LEPROT | SID364000338 | -0.299 | 3.11 | -0.381 |
| USP47 | SID364000663 | -0.813 | 2.97 | -0.856 |
| MYG1 | SID364002163 | -0.4 | 3.01 | -0.229 |
| RNF13 | SID363997971 | 0.338 | 1.45 | 0.421 |
| UHRF1 | SID363998405 | 0.378 | 1.64 | 0.275 |
| SDSL | SID364004558 | 0.199 | 2.19 | 0.19 |
| PPP1CB | SID363993868 | 0.0246 | 2.06 | 0.00823 |
| MRPL12 | SID363994100 | -0.272 | 2.79 | -0.327 |
| C2CD5 | SID363999117 | -0.167 | 1.68 | -0.0955 |
| DZANK1 | SID364000828 | -0.604 | 2.59 | -0.643 |
| RGS4 | SID363996508 | 0.792 | 1.77 | 0.791 |
| TRAF2 | SID364002035 | 0.604 | 2.65 | 0.632 |
| TMEM35A | SID364002160 | -0.319 | 4.92 | -0.302 |
| RMND1 | SID364000634 | -0.582 | 3.27 | -0.576 |
| ADD3 | SID364000267 | 0.109 | 1.12 | 0.205 |
| NDUFV1 | SID363997819 | 0.317 | 1.11 | 0.498 |
| MRPS6 | SID364003995 | 0.423 | 3.31 | 0.447 |
